What all share (settings): calculated based on HC50 values (pig erythrocytes) and MIC; ratio HC50 / MIC
Data set [1] deals with Micrococcus luteus (DSM20030). Description: Growth inhibition assay (MIC), M. luteus. The class given is cell-based. The method, then:
(§1) The minimal inhibitory concentration (MIC) of each AMPs was determined against the Gram-positive bacteria Listeria monocytogenes (DSM20600), L. grayi (DSM20601), L. fleischmannii (DSM24998), Staphylococcus aureus (DSM2569) and Micrococcus luteus (DSM20030), and the Gram-negative species Escherichia coli (D31) and Pseudomonas aeruginosa (DSM50071). The scorpion peptides were prepared at concentrations of 0.015–250 μM. The assays were carried out in 384-well plates (Greiner Bio One, Frickenhausen, Germany) using Brain Heart Infusion Broth (BHIB) medium for Listeria spp., Tryptic Soy Broth (TSB) for S. aureus, and lysogeny broth (LB) for the others. The bacteria were cultivated overnight at either 37 °C (Listeria spp., S. aureus, E. coli and P. aeruginosa) or 30 °C (M. luteus) and subcultured in fresh media before the growth inhibition assays. Growth inhibition was measured as previously described.

For another data set, the system named is L. grayi (DSM20601). Description: Growth inhibition assay (MIC), L. grayi. The class given is cell-based, Listeria grayi. Here is the method: as §1
Data set [2] has as its system L. fleischmannii (DSM24998). Description: Growth inhibition assay (MIC), L. fleischmannii. The class given is cell-based, Listeria fleischmannii. Here is the method: as §1

These results are taken from publication PMC5308254, “Bioactivity of Natural and Engineered Antimicrobial Peptides from Venom of the Scorpions Urodacus yaschenkoi and U. manicatus” (Toxins, 2017).

No end group written: not given here.

As for FLSTIWNGIKGLL-NH2 [Uy192], in data set [1], the “Therapeutic index (TI) M. luteus” value was 10.37. Besides, the “Therapeutic index (TI) L. grayi” value in the data set with L. grayi (DSM20601) is 10.37. In data set [2], the “Therapeutic index (TI) L. fleischmannii” value was 38.90.
In the case of FLSTIWNGIKSLF-NH2 [D2], in data set [1], the “Therapeutic index (TI) M. luteus” value is reported as 6.12. Further, in data set [2], the “Therapeutic index (TI) L. fleischmannii” value is given as 1.63.
In the case of FPFLKLSLKIPKSAIKSAIKRL-NH2 [D10], the “Therapeutic index (TI) M. luteus” value in data set [1] was 6904. For the same substance, in the data set on L. grayi (DSM20601), the “Therapeutic index (TI) L. grayi” value was 215.75. Besides, the “Therapeutic index (TI) L. fleischmannii” value in data set [2] is given as 57.53.
Turning to FPFLLSLIPSAISAIKRL-NH2 [Uy234], the “Therapeutic index (TI) M. luteus” value in data set [1] is 52.25. Also, the “Therapeutic index (TI) L. grayi” value in the data set with L. grayi (DSM20601) is listed as 26.12.
GFWGKLLEGVKKAI-NH2 [D5]: the “Therapeutic index (TI) M. luteus” value in data set [1] is 204.50. Besides, the “Therapeutic index (TI) L. grayi” value with L. grayi (DSM20601) is on record as 204.50. Also, the “Therapeutic index (TI) L. fleischmannii” value in data set [2] was 109.06.
With GFWGKLWEGVKNAI-NH2 [UyCT1], in data set [1], the “Therapeutic index (TI) M. luteus” value is 142.50. For the same substance, the “Therapeutic index (TI) L. grayi” value with L. grayi (DSM20601) was 35.62. The “Therapeutic index (TI) L. fleischmannii” value in data set [2] is on record as 35.62.
GFWGKLWEGVKNAIKKK-NH2 [D11]: in data set [1], the “Therapeutic index (TI) M. luteus” value is 4440. The “Therapeutic index (TI) L. grayi” value in the data set on L. grayi (DSM20601) is given as 1110. Also, in data set [2], the “Therapeutic index (TI) L. fleischmannii” value is listed as 1110.
In the case of GFWGKLWEGVKSAI-NH2 [Um3], in data set [1], the “Therapeutic index (TI) M. luteus” value was 63.10. The “Therapeutic index (TI) L. grayi” value in the data set on L. grayi (DSM20601) is reported as 31.55. Also, the “Therapeutic index (TI) L. fleischmannii” value in data set [2] is recorded as 31.55.
For the substance IFGAIWSGIKSLF-NH2 [D1], the “Therapeutic index (TI) M. luteus” value in data set [1] is given as 11.99. Moreover, the “Therapeutic index (TI) L. grayi” value in the data set on L. grayi (DSM20601) is 5.99. Also, in data set [2], the “Therapeutic index (TI) L. fleischmannii” value is 11.99.
For the substance IFKAIWSGIKSLF-NH2 [Um5], the “Therapeutic index (TI) M. luteus” value in data set [1] is given as 29.62. In addition, the “Therapeutic index (TI) L. grayi” value in the data set on L. grayi (DSM20601) is recorded as 29.62. Moreover, in data set [2], the “Therapeutic index (TI) L. fleischmannii” value is 29.62.
On to ILSAIWSGIKGLL-NH2 [Uy17], for which the “Therapeutic index (TI) M. luteus” value in data set [1] is on record as 9.22.
For ILSAIWSGIKSLF-NH2 [UyCT3], the “Therapeutic index (TI) M. luteus” value in data set [1] is 14.53. For the same substance, the “Therapeutic index (TI) L. grayi” value in the data set with L. grayi (DSM20601) is 7.26. Besides, the “Therapeutic index (TI) L. fleischmannii” value in data set [2] was 14.53.
As to ISQSDAILSAIWSGIKSLF-NH2 [Um2], in data set [1], the “Therapeutic index (TI) M. luteus” value is 32.25.
For IWSAIWSGIKGLL-NH2 [UyCT5], the “Therapeutic index (TI) M. luteus” value in data set [1] was 5.14. Moreover, in the data set on L. grayi (DSM20601), the “Therapeutic index (TI) L. grayi” value was 2.57. The “Therapeutic index (TI) L. fleischmannii” value in data set [2] is recorded as 2.57.
